Laboratory results: PMC6335440
Results are given in words; binding and its absence hold for the method and conditions named. Binding seen in cells or lysates may run through a third protein. Sequences can lack the tags named with a protein.

T1: full length myc-tagged Atmin (UniProt Q6P9S1)
T1 sequence: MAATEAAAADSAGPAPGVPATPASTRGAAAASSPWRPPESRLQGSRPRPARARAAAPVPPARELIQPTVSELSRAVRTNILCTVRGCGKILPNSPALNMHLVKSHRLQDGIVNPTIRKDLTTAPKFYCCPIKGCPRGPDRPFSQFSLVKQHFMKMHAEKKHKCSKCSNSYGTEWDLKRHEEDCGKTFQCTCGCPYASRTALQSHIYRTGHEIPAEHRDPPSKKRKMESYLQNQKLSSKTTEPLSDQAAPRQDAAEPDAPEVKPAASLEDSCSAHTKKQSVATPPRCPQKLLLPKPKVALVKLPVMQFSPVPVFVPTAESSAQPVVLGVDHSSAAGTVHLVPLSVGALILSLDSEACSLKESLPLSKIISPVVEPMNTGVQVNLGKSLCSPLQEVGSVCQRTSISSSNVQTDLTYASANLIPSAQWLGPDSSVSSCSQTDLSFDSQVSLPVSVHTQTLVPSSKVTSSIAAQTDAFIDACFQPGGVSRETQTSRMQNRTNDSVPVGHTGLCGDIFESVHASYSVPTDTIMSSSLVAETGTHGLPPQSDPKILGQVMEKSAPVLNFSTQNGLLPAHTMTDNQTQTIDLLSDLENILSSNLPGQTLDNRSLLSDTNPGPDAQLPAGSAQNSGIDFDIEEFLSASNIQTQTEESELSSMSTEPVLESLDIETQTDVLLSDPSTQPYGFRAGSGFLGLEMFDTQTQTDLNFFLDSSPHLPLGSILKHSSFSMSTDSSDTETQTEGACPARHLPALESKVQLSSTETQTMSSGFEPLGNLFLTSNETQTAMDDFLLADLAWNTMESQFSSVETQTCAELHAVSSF

B1: full length myc-tagged Atmin (protein, UniProt Q6P9S1 1-818)
chain: MAATEAAAADSAGPAPGVPATPASTRGAAAASSPWRPPESRLQGSRPRPARARAAAPVPPARELIQPTVSELSRAVRTNILCTVRGCGKILPNSPALNMHLVKSHRLQDGIVNPTIRKDLTTAPKFYCCPIKGCPRGPDRPFSQFSLVKQHFMKMHAEKKHKCSKCSNSYGTEWDLKRHEEDCGKTFQCTCGCPYASRTALQSHIYRTGHEIPAEHRDPPSKKRKMESYLQNQKLSSKTTEPLSDQAAPRQDAAEPDAPEVKPAASLEDSCSAHTKKQSVATPPRCPQKLLLPKPKVALVKLPVMQFSPVPVFVPTAESSAQPVVLGVDHSSAAGTVHLVPLSVGALILSLDSEACSLKESLPLSKIISPVVEPMNTGVQVNLGKSLCSPLQEVGSVCQRTSISSSNVQTDLTYASANLIPSAQWLGPDSSVSSCSQTDLSFDSQVSLPVSVHTQTLVPSSKVTSSIAAQTDAFIDACFQPGGVSRETQTSRMQNRTNDSVPVGHTGLCGDIFESVHASYSVPTDTIMSSSLVAETGTHGLPPQSDPKILGQVMEKSAPVLNFSTQNGLLPAHTMTDNQTQTIDLLSDLENILSSNLPGQTLDNRSLLSDTNPGPDAQLPAGSAQNSGIDFDIEEFLSASNIQTQTEESELSSMSTEPVLESLDIETQTDVLLSDPSTQPYGFRAGSGFLGLEMFDTQTQTDLNFFLDSSPHLPLGSILKHSSFSMSTDSSDTETQTEGACPARHLPALESKVQLSSTETQTMSSGFEPLGNLFLTSNETQTAMDDFLLADLAWNTMESQFSSVETQTCAELHAVSSF

What was measured:
[1] = molecular target: T1, full length myc-tagged Atmin; experiment: co-IP; forward: ATMIN-MYC precipitated with rabbit anti-MYC and Protein G sepharose from lysates of co-transfected HEK293T cells, overnight at 4 °C; lysis buffer 50 mM Tris pH 8, 150 mM NaCl, 1% NP-40; blot for GFP
[2] = molecular target: the last 193 amino acids of the C-terminus of GFP-tagged Fibrocystin; experiment: co-IP; reverse: C-terminal Pkhd1-GFP precipitated with mouse anti-GFP and Protein G sepharose from lysates of co-transfected HEK293T cells, overnight at 4 °C; lysis buffer 50 mM Tris pH 8, 150 mM NaCl, 1% NP-40; blot for MYC

binding [1] | binding [2] | Molecule
no binding | – | the last 193 amino acids of the C-terminus of GFP-tagged Fibrocystin (domain or fragment)
– | no binding | B1
